Reference: PMC3275627
No constants are given. Whether binding was seen depends on the method and setting. In cells and extracts the contact can be indirect. Some results given as binding are weak or reduced against the parent protein; the word gives no strength. Where a sequence is shown, tags or fusion partners need not be part of it.

Biological target: T1, Set3-Myc fusion protein (S. pombe) (UniProt Q10362)
T1 sequence: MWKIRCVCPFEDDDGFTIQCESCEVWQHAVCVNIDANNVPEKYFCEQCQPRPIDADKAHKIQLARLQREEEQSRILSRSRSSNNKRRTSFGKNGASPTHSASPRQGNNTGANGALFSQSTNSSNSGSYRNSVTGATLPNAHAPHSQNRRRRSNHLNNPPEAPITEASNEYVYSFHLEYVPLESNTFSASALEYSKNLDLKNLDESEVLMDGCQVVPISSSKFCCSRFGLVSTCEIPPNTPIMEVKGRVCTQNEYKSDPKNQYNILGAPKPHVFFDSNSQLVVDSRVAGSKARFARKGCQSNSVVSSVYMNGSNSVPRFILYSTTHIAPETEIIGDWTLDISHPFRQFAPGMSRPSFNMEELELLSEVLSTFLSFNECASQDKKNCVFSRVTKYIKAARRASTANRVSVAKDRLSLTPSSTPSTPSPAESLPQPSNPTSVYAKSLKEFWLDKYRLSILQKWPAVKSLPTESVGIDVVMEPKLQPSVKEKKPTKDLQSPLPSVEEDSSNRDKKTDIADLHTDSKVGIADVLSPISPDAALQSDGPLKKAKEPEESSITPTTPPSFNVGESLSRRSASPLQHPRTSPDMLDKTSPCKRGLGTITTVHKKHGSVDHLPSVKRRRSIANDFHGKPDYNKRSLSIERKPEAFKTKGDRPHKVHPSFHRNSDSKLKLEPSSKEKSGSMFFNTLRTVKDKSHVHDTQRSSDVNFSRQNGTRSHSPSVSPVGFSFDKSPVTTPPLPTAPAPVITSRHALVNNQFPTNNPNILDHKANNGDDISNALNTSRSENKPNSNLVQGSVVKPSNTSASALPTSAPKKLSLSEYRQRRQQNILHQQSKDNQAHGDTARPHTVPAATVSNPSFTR
Assay: co-IP; S. pombe cells expressing both tagged proteins, lysed under native conditions (1% IGEPAL CA630, 150 mM NaCl, 50 mM Tris-HCl pH 8.0); anti-Myc immunoprecipitation on Protein G Dynabeads, immunoblot with anti-HA (per results and legend)

binding: binds
B1: Hif2-HA fusion protein (protein, UniProt O74845 1-564)
chain: MDTNQVNYIIWRYLKECGYSHTKFAFERETGIQNLDKQWGSTCQVGALVEILQKGLQYVELEKHYVDNHSSNEEASKTSIDGESLVNENPCKLPFYLTVPHICETTLTKADSTNGFCEHNNSNDHQLKILQDKGSGSPSSPVMPFKDKIEKRDIDITMADESNVEKDPARPIAVYNSSPVTEITEIKQVTFTGGEDIKSDFFKVIPTKHPVTCADWRPLLQENYHVYEFSIGMTNATLASVSICEEQNDFKAKTDYCLQSSFDNQDITGVAWNNSGSFLAYAFFSGVIEIYDSHGSQILSFHNNKGPVLSLKWSGTDTYLAAGSADGTITLFDQLKQTQYSIDTLASSVLDIEWISFDEFVTSDVEGSLRVYKVDGKAPVSTVSHAHDNSIVALRYNLRISLLLTASSDTTVKLWSRGDAGAFECLHVFSFSSPVNCIDWNLREGTPILAVASNSIVSMYNAISLQQLAVFMRHTAPVSALSFSHNGRYLATGDTSGGVCIWSCKTAKLFKELGSDNSELIAVTNVLPEEQVNFLRWSFDDKDLLIGKQKKEIICCCDFLHDSL
